The values that follow come from publication doi:10.1101/2021.03.04.433988.

Protein sequences, listed by entry. Tags and fused reporters are not part of them. Lines headed by an entry give the natural chain unless they say otherwise; changes in a name come on top. Chains listed by the source or under a name are the forms on record and can include a tag or linker. Residues count along the entry.
HA-tagged EZH2 (Q15910-2, form named): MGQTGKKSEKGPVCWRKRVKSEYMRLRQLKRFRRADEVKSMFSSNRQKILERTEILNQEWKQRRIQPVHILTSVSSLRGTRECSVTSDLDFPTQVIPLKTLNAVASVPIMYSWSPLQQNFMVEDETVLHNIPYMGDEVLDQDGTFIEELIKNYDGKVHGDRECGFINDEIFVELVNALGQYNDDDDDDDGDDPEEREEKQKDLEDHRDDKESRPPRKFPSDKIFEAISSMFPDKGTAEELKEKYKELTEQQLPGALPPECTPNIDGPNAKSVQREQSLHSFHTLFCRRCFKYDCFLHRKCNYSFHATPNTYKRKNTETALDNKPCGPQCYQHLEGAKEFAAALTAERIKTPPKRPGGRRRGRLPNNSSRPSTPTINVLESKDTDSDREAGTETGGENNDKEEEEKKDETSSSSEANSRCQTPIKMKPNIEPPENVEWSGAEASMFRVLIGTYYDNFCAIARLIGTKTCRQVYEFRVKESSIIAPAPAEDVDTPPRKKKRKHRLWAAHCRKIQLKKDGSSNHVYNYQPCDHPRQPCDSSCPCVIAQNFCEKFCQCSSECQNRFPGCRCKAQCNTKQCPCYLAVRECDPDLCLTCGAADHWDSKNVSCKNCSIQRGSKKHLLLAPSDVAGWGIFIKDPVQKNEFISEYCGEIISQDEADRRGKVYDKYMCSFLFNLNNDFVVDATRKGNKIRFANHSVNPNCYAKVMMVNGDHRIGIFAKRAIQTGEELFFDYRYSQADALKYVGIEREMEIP
UniProt Q5T4S7, residues 4367-5163: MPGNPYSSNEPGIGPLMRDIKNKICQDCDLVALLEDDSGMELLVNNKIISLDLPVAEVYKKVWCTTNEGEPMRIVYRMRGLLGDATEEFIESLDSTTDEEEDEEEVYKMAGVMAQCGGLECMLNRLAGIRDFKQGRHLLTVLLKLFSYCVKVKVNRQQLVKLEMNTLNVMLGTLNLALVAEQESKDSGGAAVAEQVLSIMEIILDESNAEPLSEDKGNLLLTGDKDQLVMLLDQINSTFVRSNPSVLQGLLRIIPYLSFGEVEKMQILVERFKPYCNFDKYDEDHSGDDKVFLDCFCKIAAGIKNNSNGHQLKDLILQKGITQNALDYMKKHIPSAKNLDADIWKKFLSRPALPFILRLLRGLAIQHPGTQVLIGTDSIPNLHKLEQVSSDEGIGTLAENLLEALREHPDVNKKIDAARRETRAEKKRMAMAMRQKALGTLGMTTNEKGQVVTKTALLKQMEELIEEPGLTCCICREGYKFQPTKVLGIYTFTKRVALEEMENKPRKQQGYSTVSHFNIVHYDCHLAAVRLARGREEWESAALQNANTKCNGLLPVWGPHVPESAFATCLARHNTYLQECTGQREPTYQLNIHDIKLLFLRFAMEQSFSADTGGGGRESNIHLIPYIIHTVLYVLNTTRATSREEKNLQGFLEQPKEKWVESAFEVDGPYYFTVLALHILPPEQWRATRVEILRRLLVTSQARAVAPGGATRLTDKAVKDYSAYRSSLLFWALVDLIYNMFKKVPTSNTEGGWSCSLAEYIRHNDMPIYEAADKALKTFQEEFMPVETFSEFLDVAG

Test [1] deals with HA-tagged EZH2 (human) (UniProt Q15910). Put plainly: co-IP.
For test [2], the target named is Flag-HA-tagged UBR4-LD (human) (UniProt Q5T4S7). Put plainly: co-IP.

No constants are given. Whether binding was seen depends on the method and setting. Binding seen in cells or lysates may run through a third protein. Some results given as binding are weak or reduced against the parent protein; the word gives no strength.

For the substance “Flag-HA-tagged UBR4-LD (from UniProt Q5T4S7 4367-5163) (domain or fragment)”, in test [1], the binding entry is reported as “binds”.
“HA-tagged EZH2 (from UniProt Q15910-2 1-751)”: the binding result in test [2] is listed as “binds”.
